Library screening results

Sequences of proteins named here, by UniProt entry; tags and fusion partners are left off.
UniProt E9BF75, entry or part of it: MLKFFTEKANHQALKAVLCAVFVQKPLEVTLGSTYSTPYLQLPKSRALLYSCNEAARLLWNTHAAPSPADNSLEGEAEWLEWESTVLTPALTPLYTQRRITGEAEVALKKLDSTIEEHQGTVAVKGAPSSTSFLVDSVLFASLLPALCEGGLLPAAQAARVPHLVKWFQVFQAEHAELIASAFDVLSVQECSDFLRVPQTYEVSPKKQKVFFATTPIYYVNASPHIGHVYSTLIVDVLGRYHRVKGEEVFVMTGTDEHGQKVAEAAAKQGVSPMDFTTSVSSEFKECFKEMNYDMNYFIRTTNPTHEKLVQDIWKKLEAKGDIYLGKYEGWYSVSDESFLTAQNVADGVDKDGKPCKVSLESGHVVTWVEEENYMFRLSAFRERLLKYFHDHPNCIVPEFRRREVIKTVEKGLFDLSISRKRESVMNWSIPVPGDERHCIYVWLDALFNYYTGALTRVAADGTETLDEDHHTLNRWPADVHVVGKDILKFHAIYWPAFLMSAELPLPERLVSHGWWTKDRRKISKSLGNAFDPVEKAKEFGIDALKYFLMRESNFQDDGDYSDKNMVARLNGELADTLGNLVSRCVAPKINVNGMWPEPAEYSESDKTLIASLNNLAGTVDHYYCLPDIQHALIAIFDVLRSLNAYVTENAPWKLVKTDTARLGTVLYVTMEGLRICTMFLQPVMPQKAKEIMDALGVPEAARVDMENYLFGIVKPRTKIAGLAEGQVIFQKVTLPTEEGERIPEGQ

A: 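Primary screen of methionyl-tRNA synthetase; the read-out is not stated. Target: Methionyl-tRNA synthetase (putative), Leishmania donovani (UniProt E9BF75). The test concentration is not given. The values are filed as inhibition. Of about 68,000 compounds tested this way, about 24 (0.035%) reached 50% or more in at least one test.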
B: 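Assay on Mycobacterium tuberculosis, filed only as a heat shock assay from Cornell; the read-out is not stated. The concentration is filed as 10 mM, unlikely as a test dose, so the dose is not known. Direction is inferred from retests: higher values go with stronger inhibition. Size under these conditions: about 69,000 compounds, about 930 of them at 50% or above in at least one test.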

Results are percentages, as filed. How 0% and 100% were set is not recorded. Most values in the screen are low, and negative values occur. Compounds were drawn at random from those tested, without regard to their results. A dash means the value is not listed here; it may have been measured.

Compound,A,B
O=C(Cc1cccs1)N1CCC2(CC1)COCCN2CC1CC1,13.78%,-
CC(=O)N[C@@H]1CN(C(=O)c2cnccn2)C[C@H]1c1ccc(C)cc1,10.13%,3.359%
Clc1cccc(Cl)c1CNCCOc1ccccn1,13.96%,-22.32%
Cc1cccc(OCCNC(=O)CN2CCc3cncnc3C2)c1,22.29%,-1.492%
O=C(NCC1CCOC1)c1csc(-c2ccc(F)cc2)n1 (centres unmarked),19.09%,-4.481%
CCCn1nccc1C(=O)N1CCN(C2CCc3ccccc3C2)CC1 (centres unmarked),11.34%,-20.61%
Cc1nc(CN2CCN(c3ccc4nncn4n3)C(C)C2)oc1C (centres unmarked),3.704%,-10.48%
c1cncc(OCc2noc3c2CN(Cc2ccco2)CC3)c1,4.899%,-
COC[C@]12COC[C@H]1CN(S(=O)(=O)c1cccnc1)C2,10.73%,-
COCCN(C)C[C@@H]1CCC[C@@H]2CN(Cc3ccc(OC)nc3)C[C@@H]21,11.5%,-
CCc1nc(C2CCCN2CC(=O)Nc2cc(C)nn2C)no1 (centres unmarked),17.05%,-20.35%
CN1C[C@@H](COCC2CC2)[C@H]2CCN(Cc3ccco3)CC[C@H]2C1=O,14.13%,-
CCC(C#N)NC(=O)CCNC(=O)C(C)(C)C (centres unmarked),14.65%,-13.91%
Fc1cccc(-c2nc(CN3CCCC3Cn3cccn3)co2)c1 (centres unmarked),7.229%,-4.751%
CN(C)Cc1noc2c1CN(Cc1ccsc1)CC2,13.04%,-
O=C(CC1CC1)N1CCC2(CC1)CN(Cc1cccnc1)C(=O)CO2,6.09%,-
COCC1CN(C(=O)C2=CCCC2)Cc2cnn(CC3CC3)c21 (centres unmarked),15.6%,25.31%
COc1cccc2c1OCC(NCc1cnn(-c3ccccc3)c1)C2 (centres unmarked),3.008%,-49.85%
Cc1cc(C)n(-c2cncc(N3CCN(C(=O)CN(C)C)CC3)n2)n1,12.64%,-7.836%
CCCOc1cc(CNC(=O)Nc2ccc(C)cc2)ccn1,3.631%,14.66%
O=C(O)C(F)(F)F.[H][C@@]12CN(C(=O)c3ccoc3)C[C@]1([H])OCCN2C(C)C,-,9.51%
O=C(NCCn1ccnc1)N1CCCC1c1ccc2c(c1)OCCO2 (centres unmarked),14.21%,-1.981%
[H][C@]12CCCCN1CCC[C@H]2Cn1ccnc1-c1nccn1C,-,-5.506%
Cc1n[nH]c(C)c1CNC(=O)NC1CCCN(c2ccccc2F)C1 (centres unmarked),17.12%,10.09%
Clc1ccc(C2(CNC3=NCCN3)CC2)cc1.I,-,-24.96%
CN1CCN(c2ccc(NC(=O)c3cccs3)c(C(F)(F)F)c2)CC1,8.871%,-20.98%
CCc1nccc(CN2CCCC(c3nn(C)c(=O)n3CC)C2)n1 (centres unmarked),17.47%,-8.449%
[H][C@]12CCN(S(=O)(=O)CC(C)C)CC[C@@]1([H])S(=O)(=O)CCN2C(C)=O,-,6.149%
Cc1nccc(CC2COCCN(c3cnccn3)C2)n1 (centres unmarked),2.1%,11.56%
COC(=O)C1C=CCN1C(=O)c1cc(COc2ccccc2)[nH]n1 (centres unmarked),12.79%,2.519%
CCNC(=O)NC[C@H]1COCc2nc3cc(OC)ccc3n21,-0.5495%,28.84%
O=C(CNc1cc(-n2cnnn2)ccc1F)Nc1ccccc1Cl,14.97%,3.327%
Cc1nc(C)c(C(=O)NCCNc2ncccc2C(F)(F)F)s1,15.64%,-2.039%
O=C(CCn1c(=O)oc2ccccc21)NCC(O)c1ccc(F)c(F)c1 (centres unmarked),13.44%,64.78%
[H][C@]12CC[C@]([H])(CN(Cc3cccnc3N)C1)N(Cc1c(C)noc1C)C2=O,-,4.913%
c1ccc([C@@H]2CN(Cc3ccncc3)C[C@H]2c2cc[nH]n2)cc1,16.67%,-
CN1CCCN(CC(CC(=O)Nc2ccc(Cl)cc2)C(=O)O)CC1 (centres unmarked),17.69%,-16.55%
c1coc(-c2nc(CNC3CCC4(CCNCC4)CC3)no2)c1,23.36%,-8.732%
O=C(O)C(F)(F)F.c1csc(CN2Cc3nccn3CC(Cn3cncn3)C2)c1 (centres unmarked),-,-12.15%
CCc1noc(CNC2CCCN(Cc3noc(C4CC4)n3)C2)n1 (centres unmarked),19.34%,-21.39%
O=C(CCc1ccco1)N1CCC(Oc2ccccc2)(C(=O)O)CC1,11.04%,-25.72%
c1ccc(SCCN2CCCC(Cn3ccnc3)C2)cc1 (centres unmarked),7.904%,13.81%
CC(C)OCCN1CCC(N2CCN(C)C2=O)CC1,10.93%,7.293%
CC(C)COc1ccccc1CN(C)C(=O)c1cc(=O)[nH]c(=O)[nH]1,7.843%,-8.419%
CN(C)S(=O)(=O)NCc1cccnc1Oc1ccccc1,10.67%,-4.23%
COc1ccccc1C(=O)N1CC(=O)N(CC(C)C)CC(O)C1 (centres unmarked),11.23%,46.88%
CC[C@H](C)Nc1nccc(-c2cnc3sc(C)cn3c2=O)n1,13.35%,-15.74%
Cn1ccnc1CN1CCCCC1Cn1cccn1 (centres unmarked),9.028%,-12.56%
CC(NC(=O)N1CCCN(CC(F)F)CC1)c1ccco1 (centres unmarked),8.757%,15.43%
CN(C(=O)C1CCOCC1)[C@@H]1CCC[C@@H](N2CCCC2)[C@@H]1O,9.176%,60.86%
Cc1cc(C(=O)NC2(C#N)CCCC2)c(C)n1-c1cccnc1,14.97%,-30.74%
Cc1nc(C2CCCN(C(=O)c3cccc4c3OCO4)C2)no1 (centres unmarked),11.81%,5.058%
Cc1nc(C2(NCc3cccc(F)c3F)CCCCC2)no1,16.67%,17.09%
CSCCC(O)C(=O)N1CCN(Cc2cccc(Cl)c2)CC1 (centres unmarked),10.65%,31.13%
O=C1CN([C@@H]2CC[C@@H](NS(=O)(=O)c3ccc(F)cc3)[C@H]2O)CCN1,9.884%,-5.054%
CN(C)[C@@H]1CCN(C(=O)Cc2ccc(F)cc2)[C@H]1Cc1ccncc1.O=C(O)C(F)(F)F.O=C(O)C(F)(F)F,-,-3.432%
COc1c(Br)cccc1CCNC(=O)c1ccon1,8.871%,17.55%

Once more, the final 5:

{"compound": "Cc1nc(C2(NCc3cccc(F)c3F)CCCCC2)no1", "A": 16.67, "B": 17.09}
{"compound": "CSCCC(O)C(=O)N1CCN(Cc2cccc(Cl)c2)CC1", "stereo": "centres unmarked", "A": 10.65, "B": 31.13}
{"compound": "O=C1CN([C@@H]2CC[C@@H](NS(=O)(=O)c3ccc(F)cc3)[C@H]2O)CCN1", "A": 9.884, "B": -5.054}
{"compound": "CN(C)[C@@H]1CCN(C(=O)Cc2ccc(F)cc2)[C@H]1Cc1ccncc1.O=C(O)C(F)(F)F.O=C(O)C(F)(F)F", "B": -3.432}
{"compound": "COc1c(Br)cccc1CCNC(=O)c1ccon1", "A": 8.871, "B": 17.55}

Measurements from “University of Dundee, Small-Polar-MMV Screening Library” (2021), ChEMBL document CHEMBL3988442.